# These are yes or no findings as the source states them, for the method shown. For some of these results: Binding seen in cells or lysates may run through a third protein. Some entries that bind do so weakly or less than the wild type. Where a sequence is shown, tags or fusion partners need not be part of it.
# Protein sequences, listed by entry. Tags and fused reporters are not part of them.
# UniProt P49336: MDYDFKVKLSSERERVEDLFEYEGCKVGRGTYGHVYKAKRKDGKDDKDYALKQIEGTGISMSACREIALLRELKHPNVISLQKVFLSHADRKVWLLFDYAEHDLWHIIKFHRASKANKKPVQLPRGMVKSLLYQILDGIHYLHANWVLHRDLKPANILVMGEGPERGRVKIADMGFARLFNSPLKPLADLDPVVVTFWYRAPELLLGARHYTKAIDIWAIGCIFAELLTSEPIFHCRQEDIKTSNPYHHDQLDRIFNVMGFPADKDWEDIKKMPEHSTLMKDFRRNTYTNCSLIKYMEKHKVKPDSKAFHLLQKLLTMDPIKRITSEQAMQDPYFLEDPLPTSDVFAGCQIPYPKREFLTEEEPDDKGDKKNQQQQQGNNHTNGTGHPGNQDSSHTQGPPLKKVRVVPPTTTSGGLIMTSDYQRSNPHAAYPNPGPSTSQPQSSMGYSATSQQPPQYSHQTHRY
# UniProt Q15648: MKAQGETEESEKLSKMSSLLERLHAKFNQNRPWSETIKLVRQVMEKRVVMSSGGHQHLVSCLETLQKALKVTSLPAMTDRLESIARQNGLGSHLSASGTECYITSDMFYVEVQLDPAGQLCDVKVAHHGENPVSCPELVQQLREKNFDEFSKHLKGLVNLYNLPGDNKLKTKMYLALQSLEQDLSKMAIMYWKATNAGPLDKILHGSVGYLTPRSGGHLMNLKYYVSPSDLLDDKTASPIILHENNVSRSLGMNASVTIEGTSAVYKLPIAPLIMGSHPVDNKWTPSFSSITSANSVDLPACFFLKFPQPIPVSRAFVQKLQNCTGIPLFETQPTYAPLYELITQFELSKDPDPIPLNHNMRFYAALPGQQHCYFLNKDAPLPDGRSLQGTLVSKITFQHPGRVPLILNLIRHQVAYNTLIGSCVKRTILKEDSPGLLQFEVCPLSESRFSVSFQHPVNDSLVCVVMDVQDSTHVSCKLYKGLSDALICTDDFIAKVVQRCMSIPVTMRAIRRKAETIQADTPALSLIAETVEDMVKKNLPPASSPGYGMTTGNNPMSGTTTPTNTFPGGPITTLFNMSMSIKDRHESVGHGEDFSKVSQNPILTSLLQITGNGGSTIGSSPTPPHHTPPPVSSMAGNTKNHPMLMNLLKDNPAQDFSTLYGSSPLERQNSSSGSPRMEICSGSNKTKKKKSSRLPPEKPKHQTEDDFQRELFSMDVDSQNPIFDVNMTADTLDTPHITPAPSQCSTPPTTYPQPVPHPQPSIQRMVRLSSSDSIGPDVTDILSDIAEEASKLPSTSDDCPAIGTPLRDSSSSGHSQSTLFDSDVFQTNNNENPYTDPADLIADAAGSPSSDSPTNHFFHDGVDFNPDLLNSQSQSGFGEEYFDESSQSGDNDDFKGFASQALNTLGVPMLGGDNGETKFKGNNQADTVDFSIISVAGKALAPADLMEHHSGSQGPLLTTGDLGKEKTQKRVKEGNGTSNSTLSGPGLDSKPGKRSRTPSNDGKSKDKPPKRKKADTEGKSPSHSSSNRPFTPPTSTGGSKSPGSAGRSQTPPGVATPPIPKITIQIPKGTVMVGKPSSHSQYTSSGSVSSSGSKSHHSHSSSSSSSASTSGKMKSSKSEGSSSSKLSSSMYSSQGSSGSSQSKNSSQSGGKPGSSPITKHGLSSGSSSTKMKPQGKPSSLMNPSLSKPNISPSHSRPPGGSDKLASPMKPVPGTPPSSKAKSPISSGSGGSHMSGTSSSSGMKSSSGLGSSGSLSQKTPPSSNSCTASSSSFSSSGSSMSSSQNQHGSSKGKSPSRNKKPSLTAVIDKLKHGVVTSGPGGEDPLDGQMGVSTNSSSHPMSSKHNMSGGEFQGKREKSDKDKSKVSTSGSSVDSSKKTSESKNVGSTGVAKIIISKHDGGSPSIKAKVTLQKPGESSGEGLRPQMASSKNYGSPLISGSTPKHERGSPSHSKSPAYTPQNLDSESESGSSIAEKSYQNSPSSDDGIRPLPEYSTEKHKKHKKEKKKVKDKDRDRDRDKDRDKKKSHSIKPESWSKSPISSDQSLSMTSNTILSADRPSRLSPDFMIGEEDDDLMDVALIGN
# T1: MBP-6xHis-TEV-p63 (UniProt Q9H3D4)
# T1 sequence: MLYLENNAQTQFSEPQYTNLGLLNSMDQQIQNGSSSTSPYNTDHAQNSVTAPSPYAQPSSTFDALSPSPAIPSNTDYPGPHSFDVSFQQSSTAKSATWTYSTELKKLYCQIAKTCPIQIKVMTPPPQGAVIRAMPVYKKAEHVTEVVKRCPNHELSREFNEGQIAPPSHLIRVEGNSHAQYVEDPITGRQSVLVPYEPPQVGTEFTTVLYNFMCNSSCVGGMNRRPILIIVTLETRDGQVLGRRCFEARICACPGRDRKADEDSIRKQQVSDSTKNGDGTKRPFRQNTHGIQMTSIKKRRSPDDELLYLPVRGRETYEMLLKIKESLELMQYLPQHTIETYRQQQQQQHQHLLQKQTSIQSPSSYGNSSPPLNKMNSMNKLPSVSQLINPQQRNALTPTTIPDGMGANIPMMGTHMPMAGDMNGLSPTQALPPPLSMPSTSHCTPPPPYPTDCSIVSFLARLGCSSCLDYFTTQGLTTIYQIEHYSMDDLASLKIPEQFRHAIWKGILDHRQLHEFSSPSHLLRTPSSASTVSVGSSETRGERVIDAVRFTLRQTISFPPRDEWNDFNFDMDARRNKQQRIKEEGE
# T2: N-3xFLAG-p63 (UniProt Q9H3D4)
# T2 sequence: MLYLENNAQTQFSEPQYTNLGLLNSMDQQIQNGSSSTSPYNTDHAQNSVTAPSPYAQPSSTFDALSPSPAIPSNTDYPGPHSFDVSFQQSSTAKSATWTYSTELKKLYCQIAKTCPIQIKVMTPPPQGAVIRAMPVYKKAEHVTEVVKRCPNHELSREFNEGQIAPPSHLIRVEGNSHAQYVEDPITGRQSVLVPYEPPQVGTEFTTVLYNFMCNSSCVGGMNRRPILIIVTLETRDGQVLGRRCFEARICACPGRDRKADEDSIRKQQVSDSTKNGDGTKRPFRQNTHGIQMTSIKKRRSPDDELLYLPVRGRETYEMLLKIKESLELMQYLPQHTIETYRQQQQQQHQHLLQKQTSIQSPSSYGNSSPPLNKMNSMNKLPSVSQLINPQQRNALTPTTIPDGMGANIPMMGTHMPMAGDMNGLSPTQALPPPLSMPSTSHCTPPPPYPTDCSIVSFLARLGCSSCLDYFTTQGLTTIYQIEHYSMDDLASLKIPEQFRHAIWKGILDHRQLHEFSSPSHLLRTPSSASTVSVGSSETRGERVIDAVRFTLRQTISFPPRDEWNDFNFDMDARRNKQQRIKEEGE
# T3: p63-C-3xFLAG (UniProt Q9H3D4)
# T3 sequence: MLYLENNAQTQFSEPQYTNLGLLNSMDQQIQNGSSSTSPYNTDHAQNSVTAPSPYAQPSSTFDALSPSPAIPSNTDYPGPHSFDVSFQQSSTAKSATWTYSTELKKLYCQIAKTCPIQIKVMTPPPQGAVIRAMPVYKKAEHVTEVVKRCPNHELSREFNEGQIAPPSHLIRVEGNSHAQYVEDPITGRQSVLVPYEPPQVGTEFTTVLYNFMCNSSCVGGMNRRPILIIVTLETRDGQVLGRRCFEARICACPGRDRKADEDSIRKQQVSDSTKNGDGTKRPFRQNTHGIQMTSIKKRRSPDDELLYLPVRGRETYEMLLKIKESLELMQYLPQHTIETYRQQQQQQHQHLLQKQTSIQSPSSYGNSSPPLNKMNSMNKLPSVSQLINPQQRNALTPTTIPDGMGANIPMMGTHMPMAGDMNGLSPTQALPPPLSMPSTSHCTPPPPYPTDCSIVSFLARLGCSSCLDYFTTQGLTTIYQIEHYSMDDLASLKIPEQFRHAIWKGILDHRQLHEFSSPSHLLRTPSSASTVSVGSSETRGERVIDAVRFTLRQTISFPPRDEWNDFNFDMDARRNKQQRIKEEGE
# T4: MBP-6xHis-TEV-p63, Q9H3D4
# T4 chain: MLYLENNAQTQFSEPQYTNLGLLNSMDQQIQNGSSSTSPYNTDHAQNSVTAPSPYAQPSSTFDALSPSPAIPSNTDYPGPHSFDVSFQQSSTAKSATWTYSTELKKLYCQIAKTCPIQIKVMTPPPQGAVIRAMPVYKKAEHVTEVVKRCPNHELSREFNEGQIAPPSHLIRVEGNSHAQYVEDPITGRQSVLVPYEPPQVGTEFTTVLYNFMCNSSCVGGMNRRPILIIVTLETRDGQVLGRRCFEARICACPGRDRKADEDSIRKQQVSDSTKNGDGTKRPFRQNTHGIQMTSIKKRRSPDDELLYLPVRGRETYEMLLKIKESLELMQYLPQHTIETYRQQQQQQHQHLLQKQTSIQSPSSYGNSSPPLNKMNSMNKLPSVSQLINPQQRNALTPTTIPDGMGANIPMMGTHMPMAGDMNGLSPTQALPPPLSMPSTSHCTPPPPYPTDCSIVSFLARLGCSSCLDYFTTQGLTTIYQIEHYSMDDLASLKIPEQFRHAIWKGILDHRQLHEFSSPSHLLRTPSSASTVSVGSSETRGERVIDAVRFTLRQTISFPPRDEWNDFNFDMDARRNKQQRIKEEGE
# Key:
# MBP-6xHis-TEV-p63 = biological target: T1, MBP-6xHis-TEV-p63; assay: pull-down; purified MBP-p63 on magnetic amylose beads incubated overnight with nuclear lysates of endogenously tagged 3NHA-CDK8 HeLa cells; 20mM HEPES pH 7.5, 150mM KCl, 0.05% NP-40, 4C; maltose elution; HA western blot; only the target purified
# N-3xFLAG-p63 = biological target: T2, N-3xFLAG-p63; assay: co-IP; FLAG immunoprecipitation (magnetic M2 FLAG beads, overnight, 4C) from HEK293T nuclear lysates with transiently transfected 3xFLAG-tagged p63; 150mM KCl, 0.05% NP-40; with or without ethidium bromide (50μg/mL); western blot of endogenous Mediator subunits
# p63-C-3xFLAG = biological target: T3, p63-C-3xFLAG; assay: as above
# [1] = biological target: T4, MBP-6xHis-TEV-p63, Q9H3D4; assay: cross-linking; purified protein incubated with 0.025% glutaraldehyde for 30min at 4C; SDS-PAGE, silver stain; both purified; settings: remark: other sources report otherwise
binding (MBP-6xHis-TEV-p63),binding (N-3xFLAG-p63),binding (p63-C-3xFLAG),binding [1],Molecule
binds,–,–,–,3xHA-tagged CDK8 (from UniProt P49336 1-464)
–,binds,binds,–,CDK8 (from UniProt P49336 1-464)
–,binds,binds,–,MED1 (from UniProt Q15648 1-1581)
–,–,–,binds,"MBP-6xHis-TEV-p63, Q9H3D4-2 1-586 (protein) MLYLENNAQTQFSEPQYTNLGLLNSMDQQIQNGSSSTSPYNTDHAQNSVTAPSPYAQPSSTFDALSPSPAIPSNTDYPGPHSFDVSFQQSSTAKSATWTYSTELKKLYCQIAKTCPIQIKVMTPPPQGAVIRAMPVYKKAEHVTEVVKRCPNHELSREFNEGQIAPPSHLIRVEGNSHAQYVEDPITGRQSVLVPYEPPQVGTEFTTVLYNFMCNSSCVGGMNRRPILIIVTLETRDGQVLGRRCFEARICACPGRDRKADEDSIRKQQVSDSTKNGDGTKRPFRQNTHGIQMTSIKKRRSPDDELLYLPVRGRETYEMLLKIKESLELMQYLPQHTIETYRQQQQQQHQHLLQKQTSIQSPSSYGNSSPPLNKMNSMNKLPSVSQLINPQQRNALTPTTIPDGMGANIPMMGTHMPMAGDMNGLSPTQALPPPLSMPSTSHCTPPPPYPTDCSIVSFLARLGCSSCLDYFTTQGLTTIYQIEHYSMDDLASLKIPEQFRHAIWKGILDHRQLHEFSSPSHLLRTPSSASTVSVGSSETRGERVIDAVRFTLRQTISFPPRDEWNDFNFDMDARRNKQQRIKEEGE"
–,–,binds,–,"MED23 (protein, UniProt Q9ULK4 1-1368) METQLQSIFEEVVKTEVIEEAFPGMFMDTPEDEKTKLISCLGAFRQFWGGLSQESHEQCIQWIVKFIHGQHSPKRISFLYDCLAMAVETGLLPPRLVCESLINSDTLEWERTQLWALTFKLVRKIIGGVDYKGVRDLLKVILEKILTIPNTVSSAVVQQLLAAREVIAYILERNACLLPAYFAVTEIRKLYPEGKLPHWLLGNLVSDFVDTFRPTARINSICGRCSLLPVVNNSGAICNSWKLDPATLRFPLKGLLPYDKDLFEPQTALLRYVLEQPYSRDMVCNMLGLNKQHKQRCPVLEDQLVDLVVYAMERSETEEKFDDGGTSQLLWQHLSSQLIFFVLFQFASFPHMVLSLHQKLAGRGLIKGRDHLMWVLLQFISGSIQKNALADFLPVMKLFDLLYPEKEYIPVPDINKPQSTHAFAMTCIWIHLNRKAQNDNSKLQIPIPHSLRLHHEFLQQSLRNKSLQMNDYKIALLCNAYSTNSECFTLPMGALVETIYGNGIMRIPLPGTNCMASGSITPLPMNLLDSLTVHAKMSLIHSIATRVIKLAHAKSSVALAPALVETYSRLLVYMEIESLGIKGFISQLLPTVFKSHAWGILHTLLEMFSYRMHHIQPHYRVQLLSHLHTLAAVAQTNQNQLHLCVESTALRLITALGSSEVQPQFTRFLSDPKTVLSAESEELNRALILTLARATHVTDFFTGSDSIQGTWCKDILQTIMSFTPHNWASHTLSCFPGPLQAFFKQNNVPQESRFNLKKNVEEEYRKWKSMSNENDIITHFSMQGSPPLFLCLLWKMLLETDHINQIGYRVLERIGARALVAHVRTFADFLVYEFSTSAGGQQLNKCIEILNDMVWKYNIVTLDRLILCLAMRSHEGNEAQVCYFIIQLLLLKPNDFRNRVSDFVKENSPEHWLQNDWHTKHMNYHKKYPEKLYFEGLAEQVDPPVQIQSPYLPIYFGNVCLRFLPVFDIVIHRFLELLPVSKSLETLLDHLGGLYKFHDRPVTYLYNTLHYYEMHLRDRAFLKRKLVHAIIGSLKDNRPQGWCLSDTYLKCAMNAREENPWVPDDTYYCRLIGRLVDTMAGKSPGPFPNCDWRFNEFPNPAAHALHVTCVELMALAVSGKEVGNALLNVVLKSQPLVPRENITAWMNAIGLIITALPEPYWIVLHDRIVSVISSPSLTSETEWVGYPFRLFDFTACHQSYSEMSCSYTLALAHAVWHHSSIGQLSLIPKFLTEVLLPIVKTEFQLLYVYHLVGPFLQRFQQERTRCMIEIGVAFYDMLLNVDQCSTHLNYMDPICDFLYHMKYMFTGDSVKEQVEKIICNLKPALKLRLRFITHISKMEPAAVPPQAMNSGSPAPQSNQVPVSLPVTQ"
